From PMC12700935
Results are given in words; binding and its absence hold for the method and conditions named. Binding seen in cells or lysates may run through a third protein. A yes stands for co-enrichment or nearness to the bait. Other partners may have been found.

By UniProt entry, the sequences of proteins in these tests, tags left out.
UniProt P06537: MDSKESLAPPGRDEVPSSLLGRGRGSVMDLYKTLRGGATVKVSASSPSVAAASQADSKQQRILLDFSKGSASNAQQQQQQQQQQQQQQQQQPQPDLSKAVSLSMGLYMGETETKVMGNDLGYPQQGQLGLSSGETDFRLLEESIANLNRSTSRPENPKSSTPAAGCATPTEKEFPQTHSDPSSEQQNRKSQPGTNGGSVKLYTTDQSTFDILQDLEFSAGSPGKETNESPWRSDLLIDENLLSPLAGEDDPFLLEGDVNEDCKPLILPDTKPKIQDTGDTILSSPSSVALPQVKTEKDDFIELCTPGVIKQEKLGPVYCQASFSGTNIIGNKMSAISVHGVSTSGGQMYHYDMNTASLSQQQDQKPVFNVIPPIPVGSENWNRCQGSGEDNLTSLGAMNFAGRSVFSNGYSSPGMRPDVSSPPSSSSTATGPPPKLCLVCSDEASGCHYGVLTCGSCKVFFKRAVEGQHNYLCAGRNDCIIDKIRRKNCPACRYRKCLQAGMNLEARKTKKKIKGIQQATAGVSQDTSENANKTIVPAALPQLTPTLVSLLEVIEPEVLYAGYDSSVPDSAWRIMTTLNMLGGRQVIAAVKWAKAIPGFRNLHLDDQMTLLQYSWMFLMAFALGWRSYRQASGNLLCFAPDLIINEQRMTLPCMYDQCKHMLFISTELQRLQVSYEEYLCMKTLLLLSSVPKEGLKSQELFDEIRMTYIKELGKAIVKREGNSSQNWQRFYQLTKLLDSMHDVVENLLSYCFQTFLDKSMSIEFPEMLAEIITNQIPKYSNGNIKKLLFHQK
UniProt P53566: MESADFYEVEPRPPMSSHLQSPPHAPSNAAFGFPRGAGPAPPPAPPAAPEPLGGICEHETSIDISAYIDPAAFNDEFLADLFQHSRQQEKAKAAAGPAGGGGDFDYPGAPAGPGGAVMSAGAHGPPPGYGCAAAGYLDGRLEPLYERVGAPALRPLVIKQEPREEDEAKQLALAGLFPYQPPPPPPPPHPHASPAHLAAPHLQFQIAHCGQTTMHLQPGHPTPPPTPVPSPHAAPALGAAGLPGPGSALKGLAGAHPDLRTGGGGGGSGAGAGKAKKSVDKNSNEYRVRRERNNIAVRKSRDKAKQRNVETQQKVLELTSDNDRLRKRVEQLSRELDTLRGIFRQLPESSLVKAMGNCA
UniProt P28033: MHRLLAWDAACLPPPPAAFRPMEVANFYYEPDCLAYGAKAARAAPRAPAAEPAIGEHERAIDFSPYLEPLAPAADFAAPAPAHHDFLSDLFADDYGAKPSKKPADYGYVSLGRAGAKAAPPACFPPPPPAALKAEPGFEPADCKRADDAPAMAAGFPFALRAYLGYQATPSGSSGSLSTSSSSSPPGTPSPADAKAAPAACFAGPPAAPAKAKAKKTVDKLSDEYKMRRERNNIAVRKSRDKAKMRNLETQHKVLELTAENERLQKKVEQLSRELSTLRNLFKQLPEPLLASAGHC
UniProt Q570Y9: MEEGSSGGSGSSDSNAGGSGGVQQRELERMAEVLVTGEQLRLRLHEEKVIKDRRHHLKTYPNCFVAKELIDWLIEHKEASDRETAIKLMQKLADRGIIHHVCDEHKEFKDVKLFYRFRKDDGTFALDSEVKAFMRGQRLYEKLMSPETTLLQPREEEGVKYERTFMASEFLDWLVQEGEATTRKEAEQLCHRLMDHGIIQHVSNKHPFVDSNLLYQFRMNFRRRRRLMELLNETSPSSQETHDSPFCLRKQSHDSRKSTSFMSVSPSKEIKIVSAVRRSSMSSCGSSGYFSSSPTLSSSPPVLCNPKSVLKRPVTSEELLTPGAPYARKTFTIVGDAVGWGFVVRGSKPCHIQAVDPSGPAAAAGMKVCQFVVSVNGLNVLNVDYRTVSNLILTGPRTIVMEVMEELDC
UniProt P45448: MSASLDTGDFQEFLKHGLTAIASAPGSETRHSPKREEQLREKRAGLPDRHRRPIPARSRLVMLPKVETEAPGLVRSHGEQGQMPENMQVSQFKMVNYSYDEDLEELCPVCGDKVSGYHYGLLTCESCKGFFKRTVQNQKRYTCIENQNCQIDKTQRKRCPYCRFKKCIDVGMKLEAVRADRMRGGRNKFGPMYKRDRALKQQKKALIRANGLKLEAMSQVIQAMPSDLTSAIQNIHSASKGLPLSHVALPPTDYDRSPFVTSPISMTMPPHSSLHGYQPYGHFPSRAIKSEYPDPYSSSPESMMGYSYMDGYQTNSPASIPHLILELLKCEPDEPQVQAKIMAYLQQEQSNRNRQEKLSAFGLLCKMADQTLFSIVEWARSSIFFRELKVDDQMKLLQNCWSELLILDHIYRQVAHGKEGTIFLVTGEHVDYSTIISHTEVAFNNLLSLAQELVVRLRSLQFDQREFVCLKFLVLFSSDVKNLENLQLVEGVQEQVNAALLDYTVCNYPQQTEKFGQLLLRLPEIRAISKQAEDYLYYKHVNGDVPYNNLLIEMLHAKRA
UniProt Q60644: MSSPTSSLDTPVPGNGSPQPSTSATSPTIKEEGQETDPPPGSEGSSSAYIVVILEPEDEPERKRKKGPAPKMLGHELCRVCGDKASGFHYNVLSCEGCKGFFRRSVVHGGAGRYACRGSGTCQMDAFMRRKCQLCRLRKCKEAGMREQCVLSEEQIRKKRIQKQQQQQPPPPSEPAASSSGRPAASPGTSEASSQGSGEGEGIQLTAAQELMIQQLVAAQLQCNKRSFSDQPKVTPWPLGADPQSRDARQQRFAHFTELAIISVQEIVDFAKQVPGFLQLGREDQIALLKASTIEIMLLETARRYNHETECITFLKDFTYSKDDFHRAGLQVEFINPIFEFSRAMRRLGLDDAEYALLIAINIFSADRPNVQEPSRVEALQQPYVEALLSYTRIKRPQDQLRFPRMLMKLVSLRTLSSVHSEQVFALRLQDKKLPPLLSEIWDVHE
UniProt Q8BRK8: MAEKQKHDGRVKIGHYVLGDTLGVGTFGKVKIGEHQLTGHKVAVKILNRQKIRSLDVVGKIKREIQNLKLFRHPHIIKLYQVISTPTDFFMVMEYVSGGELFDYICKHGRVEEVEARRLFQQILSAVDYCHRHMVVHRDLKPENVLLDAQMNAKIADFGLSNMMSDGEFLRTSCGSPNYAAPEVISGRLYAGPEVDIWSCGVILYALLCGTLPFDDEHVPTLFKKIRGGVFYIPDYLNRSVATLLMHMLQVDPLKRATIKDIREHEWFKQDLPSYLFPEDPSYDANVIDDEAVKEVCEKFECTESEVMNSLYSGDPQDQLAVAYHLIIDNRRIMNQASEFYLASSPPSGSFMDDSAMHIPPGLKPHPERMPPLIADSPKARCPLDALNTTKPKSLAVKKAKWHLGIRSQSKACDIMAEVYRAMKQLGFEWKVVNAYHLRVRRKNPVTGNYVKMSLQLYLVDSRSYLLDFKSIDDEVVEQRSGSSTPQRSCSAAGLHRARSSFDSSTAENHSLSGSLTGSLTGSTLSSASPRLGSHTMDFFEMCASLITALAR
UniProt O54950: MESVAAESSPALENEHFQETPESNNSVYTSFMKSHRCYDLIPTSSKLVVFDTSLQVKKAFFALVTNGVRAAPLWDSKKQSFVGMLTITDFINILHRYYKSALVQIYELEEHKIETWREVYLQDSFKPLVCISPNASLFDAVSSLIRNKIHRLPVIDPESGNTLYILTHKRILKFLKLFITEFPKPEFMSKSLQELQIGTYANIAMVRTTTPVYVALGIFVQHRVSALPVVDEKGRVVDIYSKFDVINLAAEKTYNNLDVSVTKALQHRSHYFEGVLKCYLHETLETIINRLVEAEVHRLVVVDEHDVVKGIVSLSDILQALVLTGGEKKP
UniProt P42230: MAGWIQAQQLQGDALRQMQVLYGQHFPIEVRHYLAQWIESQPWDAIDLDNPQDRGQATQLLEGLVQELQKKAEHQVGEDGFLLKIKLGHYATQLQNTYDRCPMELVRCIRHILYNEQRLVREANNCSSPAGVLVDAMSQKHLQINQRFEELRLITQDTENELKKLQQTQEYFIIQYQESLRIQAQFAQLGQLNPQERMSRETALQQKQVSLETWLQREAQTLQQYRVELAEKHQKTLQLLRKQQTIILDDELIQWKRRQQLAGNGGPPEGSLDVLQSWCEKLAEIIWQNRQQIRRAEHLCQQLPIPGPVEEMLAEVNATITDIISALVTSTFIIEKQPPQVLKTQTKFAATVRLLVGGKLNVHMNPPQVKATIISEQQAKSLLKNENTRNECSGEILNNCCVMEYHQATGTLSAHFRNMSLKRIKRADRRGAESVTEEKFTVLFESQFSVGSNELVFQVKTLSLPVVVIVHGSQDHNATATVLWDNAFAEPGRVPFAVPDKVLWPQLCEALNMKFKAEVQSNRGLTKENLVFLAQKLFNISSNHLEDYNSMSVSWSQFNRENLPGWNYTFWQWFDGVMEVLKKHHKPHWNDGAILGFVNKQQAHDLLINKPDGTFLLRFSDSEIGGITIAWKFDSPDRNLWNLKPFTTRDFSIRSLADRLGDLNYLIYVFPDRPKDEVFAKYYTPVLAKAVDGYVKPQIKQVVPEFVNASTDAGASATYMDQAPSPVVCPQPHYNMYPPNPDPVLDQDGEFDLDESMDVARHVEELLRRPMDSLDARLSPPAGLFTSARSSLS
UniProt P42232: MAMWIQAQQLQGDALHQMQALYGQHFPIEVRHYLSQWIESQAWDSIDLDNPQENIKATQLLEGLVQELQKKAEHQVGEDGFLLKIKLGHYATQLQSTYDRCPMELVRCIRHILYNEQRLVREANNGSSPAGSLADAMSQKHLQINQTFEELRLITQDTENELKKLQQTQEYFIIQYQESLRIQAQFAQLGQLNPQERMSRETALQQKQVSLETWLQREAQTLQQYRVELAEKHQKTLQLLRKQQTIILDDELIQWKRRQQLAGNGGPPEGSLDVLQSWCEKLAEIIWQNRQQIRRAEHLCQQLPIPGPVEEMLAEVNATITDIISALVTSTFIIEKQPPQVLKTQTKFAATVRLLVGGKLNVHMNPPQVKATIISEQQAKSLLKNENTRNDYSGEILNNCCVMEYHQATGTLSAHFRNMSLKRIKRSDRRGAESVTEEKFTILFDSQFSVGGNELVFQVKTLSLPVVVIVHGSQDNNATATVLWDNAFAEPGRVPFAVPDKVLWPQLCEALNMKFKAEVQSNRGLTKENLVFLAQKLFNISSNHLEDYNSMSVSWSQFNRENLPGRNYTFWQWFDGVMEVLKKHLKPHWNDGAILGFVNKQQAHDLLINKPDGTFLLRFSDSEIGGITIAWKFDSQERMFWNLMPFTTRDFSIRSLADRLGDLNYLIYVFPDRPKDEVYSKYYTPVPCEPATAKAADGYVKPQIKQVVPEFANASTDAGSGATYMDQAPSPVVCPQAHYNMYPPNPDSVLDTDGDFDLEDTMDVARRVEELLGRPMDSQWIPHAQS

B1: FXR (protein, UniProt Q60641 1-488)
chain: MVMQFQGLENPIQISLHHSHRLSGFVPEGMSVKPAKGMLTEHAAGPLGQNLDLESYSPYNNVPFPQVQPQISSSSYYSNLGFYPQQPEDWYSPGIYELRRMPAETGYQGETEVSEMPVTKKPRMAAASAGRIKGDELCVVCGDRASGYHYNALTCEGCKGFFRRSITKNAVYKCKNGGNCVMDMYMRRKCQECRLRKCKEMGMLAECMYTGLLTEIQCKSKRLRKNVKQHADQTANEDDSEGRDLRQVTSTTKFCREKTELTADQQTLLDYIMDSYNKQRMPQEITNKILKEEFSAEENFLILTEMATSHVQILVEFTKKLPGFQTLDHEDQIALLKGSAVEAMFLRSAEIFNKKLPAGHADLLEERIRKSGISDEYITPMFSFYKSVGELKMTQEEYALLTAIVILSPDRQYIKDREAVEKLQEPLLDVLQKLCKMYQPENPQHFACLLGRLTELRTFNHHHAEMLMSWRVNDHKFTPLLCEIWDVQ
B2: ChREB (protein, UniProt Q99MZ3 1-864)
chain: MARALADLSVNLQVPRVVPSPDSDSDTDLEDPSPRRSAGGLHRSQVIHSGHFMVSSPHSDSLTRRRDQEGPVGLADFGPRSIDPTLTHLFECLSLAYSGKLVSPKWKNFKGLKLLCRDKIRLNNAIWRAWYIQYVQRRKSPVCGFVTPLQGSEADEHRKPEAVILEGNYWKRRIEVVMREYHKWRIYYKKRLRKSSREGDFLAPKQVEGGWPPPERWCEQLFSSVVPVLLGGSEEEPGGRQLLDLDCFLSDISDTLFTMTQPSPSSLQLPPEDAYVGNADMIQPDLTPLQPSLDDFMEISDFFTNYRPPQTPTSSNYIESPSFGPMADSLFSSGILAPEMPSPASSSSSSGMTPHSGNTRLQARNSCSGPLDPNPFLSSEFLLPEDPKTKIPPAPGPTPLLPFPTPVKVHGLEPCTPSPFPTMAPPPSLLPEESLLSARFPFTSAPPAPGVSTLPAPTTFVPTPQPGPGPVPFSVDHLPHGYLEPVFGPHFTVPQGMQPRCKPSSPSPGGQKASPPTLASATASPTATATARDNNPCLTQLLRAAKPEQALEPPTMPGTLLRPPESPQDTVSEIPRARAFFPPIPAPTPPRPPPGPATLAPPRSLVVPKAERLSPPASSGSERRLSGDLNSIQPSGALSVHLSPPQTVLSRGRVDNNKMENRRITHISAEQKRRFNIKLGFDTLHGLVSTLSAQPSLKVSKATTLQKTAEYILMLQQERAAMQEEAQQLRDEIEELNAAINLCQQQLPATGVPITHQRFDQMRDMFDDYVRTRTLHNWKFWVFSILIRPLFESFNGMVSTASLHSLRQTSLAWLEQYCSLPALRPTVLNSLRQLSTSTSILTDPSLVPEQATRAVTEGTLGRPL
B3: YWHAG (protein, UniProt P61982 1-247)
chain: MVDREQLVQKARLAEQAERYDDMAAAMKNVTELNEPLSNEERNLLSVAYKNVVGARRSSWRVISSIEQKTSADGNEKKIEMVRAYREKIEKELEAVCQDVLSLLDNYLIKNCSETQYESKVFYLKMKGDYYRYLAEVATGEKRATVVESSEKAYSEAHEISKEHMQPTHPIRLGLALNYSVFYYEIQNAPEQACHLAKTAFDDAIAELDTLNEDSYKDSTLIMQLLRDNLTLWTSDQQDDDGGEGNN
B4: HNF4α (protein, UniProt P49698 1-474)
chain: MRLSKTLAGMDMADYSAALDPAYTTLEFENVQVLTMGNDTSPSEGANLNSSNSLGVSALCAICGDRATGKHYGASSCDGCKGFFRRSVRKNHMYSCRFSRQCVVDKDKRNQCRYCRLKKCFRAGMKKEAVQNERDRISTRRSSYEDSSLPSINALLQAEVLSQQITSPISGINGDIRAKKIANITDVCESMKEQLLVLVEWAKYIPAFCELLLDDQVALLRAHAGEHLLLGATKRSMVFKDVLLLGNDYIVPRHCPELAEMSRVSIRILDELVLPFQELQIDDNEYACLKAIIFFDPDAKGLSDPGKIKRLRSQVQVSLEDYINDRQYDSRGRFGELLLLLPTLQSITWQMIEQIQFIKLFGMAKIDNLLQEMLLGGSASDAPHTHHPLHPHLMQEHMGTNVIVANTMPSHLSNGQMCEWPRPRGQAATPETPQPSPPSGSGSESYKLLPGAITTIVKPPSAIPQPTITKQEAI
B5: RXRα (protein, UniProt P28700 1-467)
chain: MDTKHFLPLDFSTQVNSSSLNSPTGRGSMAVPSLHPSLGPGIGSPLGSPGQLHSPISTLSSPINGMGPPFSVISSPMGPHSMSVPTTPTLGFGTGSPQLNSPMNPVSSTEDIKPPLGLNGVLKVPAHPSGNMASFTKHICAICGDRSSGKHYGVYSCEGCKGFFKRTVRKDLTYTCRDNKDCLIDKRQRNRCQYCRYQKCLAMGMKREAVQEERQRGKDRNENEVESTSSANEDMPVEKILEAELAVEPKTETYVEANMGLNPSSPNDPVTNICQAADKQLFTLVEWAKRIPHFSELPLDDQVILLRAGWNELLIASFSHRSIAVKDGILLATGLHVHRNSAHSAGVGAIFDRVLTELVSKMRDMQMDKTELGCLRAIVLFNPDSKGLSNPAEVEALREKVYASLEAYCKHKYPEQPGRFAKLLLRLPALRSIGLKCLEHLFFFKLIGDTPIDTFLMEMLEAPHQAT
B6: NCOA5 (protein, UniProt Q91W39 1-579)
chain: MNTAPSRPSPTRRDPYSFGDSRDTRRDRSPIRGSPRREPRDGRNGRDARDSRDIRDPRDLRDRRDSRDIRDHRDSRSVREARDLRDFRDFRDLRDSRDFRDHRDPVYDRYRDIRDSRDPLYRREGSYDRYLRVDDYCRRKDDSYFDRYRDSFDGRGPPGPESQSRAKERLKREERRREELYRRYFEEIQRRFDAERPVDCSVIVVNKQTKDYAESVGRKVRDLGMVVDLIFLNTEVSLSQALEDVSRGGSPFAIVITQQHQIHRSCTVNIMFGTPQEHRNMPQADAMVLVARNYERYKNDCREKEREEIARQAAKMANDAILQERDRGGPEEGGRGGHPPAIQSLINLLADNRYLTAEETDKIINYLRERKERLLRSSADSLPGPISRQPLGAASGSSLKSQPSSQPLQSGQVLPSATPTPAAPPTSQQELQAKILSLFNSGAVAANSSSASPSVATGSSQNQNFSTAANSQPQQRPQASGNQPPNIVGQAGSARNMGPRPGAPSQGLFGQPSSRLAPASTMASQRPVSSTGINFDNPSVQKALDTLIQSGPALSHLVSQTAAQVGRPQAPMGSYQRHY

Each molecule was assayed against Glucocorticoid Receptor (mouse (endogenous in liver)) (UniProt P06537) (assay: affinity purification with mass spectrometry; ChIP-MS: GR ChIP (6 µg anti-GR or IgG) from livers of control and caloric restricted mice at ZT12, four biological replicates; on-bead trypsin digestion, timsTOF pro2; enrichment GR over IgG).

binding, binds:
CEBPα (from UniProt P53566 1-359)
CEBPβ (from UniProt P28033 1-296)
DEPTOR (from UniProt Q570Y9 1-409)
LRH-1 (from UniProt P45448 1-560)
LXRβ (from UniProt Q60644 1-446)
PRKAα2 (from UniProt Q8BRK8 1-552)
PRKAγ1 (from UniProt O54950 1-330)
STAT5a (from UniProt P42230 1-793)
STAT5b (from UniProt P42232 1-786)
B1
B2
B3
B4
B5
B6
